Screen size: about 6,900 compounds; fewer than 10 were called active. Calls follow the shape of the dose curve; as a rule, active = well fitted curve in the direction sought with a large enough effect; inconclusive = small, poorly fitted or top-dose-only effect, or another doubt; inactive = no such curve, though single readings can be large or run the other way. The list shows a part of the results.
molecular target: Metallo-beta-lactamase type 2 (Klebsiella pneumoniae) (UniProt C7C422); assay: qHTS to identify inhibitors of the New Delhi Metallo-beta-lactamase (NDM): primary screen against the NCATS Gemini Collection; settings: NDM-1 enzyme, meropenem hydrolysis, absorbance 300 nm; at 38.4 µM (top of the series) unless noted; also: % of control where 0% means no effect
How it was run: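 Meropenem hydrolysis (50 uM final) by 2 nM NDM-1 read as 300 nm absorbance after 30 min, following >30 min compound–enzyme preincubation in HEPES pH 7.0 with 1 uM ZnSO4 and 0.01% Tween20.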

Chains of the proteins cited; added tags and fusions are not shown. Lines headed by an entry give the natural chain unless they say otherwise; changes in a name come on top.
UniProt C7C422: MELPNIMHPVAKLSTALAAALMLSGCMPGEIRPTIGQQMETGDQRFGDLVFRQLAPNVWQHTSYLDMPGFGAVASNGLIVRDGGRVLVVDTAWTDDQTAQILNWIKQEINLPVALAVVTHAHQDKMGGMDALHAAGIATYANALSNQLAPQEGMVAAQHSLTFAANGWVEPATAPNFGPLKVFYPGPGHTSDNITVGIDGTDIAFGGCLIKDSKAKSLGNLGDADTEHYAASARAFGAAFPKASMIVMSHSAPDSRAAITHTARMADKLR

Activity % (negative = inhibition), inactive:
NC(=O)CN1C(=O)[C@@H]2CN(C(=O)c3cccs3)CCN2C1=O 1.74% [at 57.5 µM], O=S(=O)(c1ccc(F)cc1)N1CCC(c2noc(C3CC3)n2)C1 (configuration not stated) 8.65%, Cc1cn2nnc(C(=O)NCc3ccc(C(C)C)cc3)c2c(=O)[nH]1 1.22%, O=C(Cc1ccccn1)N1CCC2(CC1)CCN(Cc1cccs1)c1ccccc1O2 0.84%, O=C(COc1ccccc1)Nc1ccc2c(c1)CN(Cc1ccccc1F)C(=O)CO2 -0.468%, CC(C)c1noc([C@@H]2C[C@H](NC(=O)c3ccc(F)cc3)CN2C)n1 12.2% [at 57.5 µM], CCC1(O)CCC12CCN(C(=O)Cc1ccccc1)CC2 (configuration not stated) 0.153%, COc1cccc(CN2Cc3cc(NC(=O)c4ccc(F)cc4F)ccc3OC(C)C2=O)c1 (configuration not stated) 27.3%, O=S1(=O)NCC2(CCN(Cc3ccc(Cl)s3)CC2)Oc2ncccc21 5.08%, Cc1noc([C@@H]2CN(C(=O)c3cc(C4CC4)[nH]n3)C[C@H]2C(N)=O)n1 -2.48%, O=C1COc2ccc(-c3ccsc3)nc2CN1Cc1ccccc1 5.7% [at 57.5 µM], Cc1cnc(C(=O)N2CCC(c3nnc(CN4CCCC4)n3C3CC3)CC2)cn1 4.85%, Cc1nc(C)c(CC(=O)N2CCCC(C)(Cc3ccc4c(c3)OCO4)C2)s1 (configuration not stated) 25.3%, CCCn1ccnc1CN1CCCC12CCN(c1ccc(C(F)(F)F)cn1)CC2 -1.68%, O=C(Nc1cnc(-c2ccc(Cl)cc2)nc1)c1cccs1 0.821%, CCOc1ccccc1C(=O)NC1CC(=O)N(CCc2ccc(F)cc2)C1 (configuration not stated) 4.83%, CCN(CC)Cc1nnc2cc(-c3nc(-c4ccccc4)no3)ccn12 5.04%, Cc1ccc(-c2cn(CC3CCCN(c4cc(C)nc(N)n4)C3)nn2)cc1 (configuration not stated) 10.7%, O=C(Cn1cncn1)N1CCc2onc(C(c3ccccc3)c3ccccc3)c2C1 0.351%, C1=C(c2nc(-c3ccncc3)cc3c2ccn3Cc2cccnc2)CCOC1 17.9% [at 57.5 µM], CCNc1ncc(CN2CCN(c3ccncc3)CC2)cn1 14.7%, O=C(c1ccc(OC(F)F)cc1)N1C[C@H](CO)C[C@H](CN2CCCC2)C1 2.73%, O=C1NC2(CCN(Cc3ccsc3)C2)Oc2ccccc21 (configuration not stated) 3.21% [at 57.5 µM], Cc1nc(-c2ccc(OC3CCN(C(=O)NC4CCCCC4)C3)cc2)no1 (configuration not stated) 0.0723%, CC(C)N1CCN(C(=O)C23CCCC=C2N(c2ccccc2)C(=O)CC3)CC1 (configuration not stated) 2.5%, Cc1nccnc1CN1CCC2(CC1)CCN(Cc1ncc[nH]1)CC2CO (configuration not stated) -5.26%, C[S+](=O)([O-])N1CC2(Cc3ccccc31)CN(C(=O)c1ccc(F)cc1)C2 0.0373%, O=C(c1ccccc1)N1CCC(c2nnc3n2C(C(=O)N2CCN(c4ncccn4)CC2)CC3)CC1 (configuration not stated) -0.117%, O=C(N1CCC(Cc2nc(C3CC3)n[nH]2)CC1)C1(c2ccccc2)CC1 -9.4%, CC(=O)Nc1ccc(NC(=O)C2c3ccccc3C(=O)N(C3CCCC3)C23CCCC3)cc1 (configuration not stated) -2.98%, CCN1C(=O)C2(CCN(S(=O)(=O)c3cc(C)ccc3C)CC2)c2ccccc21 8.14%, CN(C)c1cccc(-c2cnc(NC(=O)c3ccncc3)c3c2CCO3)c1 16% [at 57.5 µM], CN(C)[C@@H]1CN(C(=O)CCc2ccccc2)CC[C@]1(O)c1ccccc1 20%, O=C(CC1CCCCC1)N1CC(n2cc(COCC3CC3)nn2)C1 -1.5%, O=C(c1cccs1)N1Cc2[nH]cnc2C[C@H]1c1nc(-c2ccc3ccccc3c2)no1 3.34% [at 57.5 µM], COC(=O)c1ccc(COCC2=CC(C)(C)Oc3ccc(OC)cc32)cc1 1.26%, CN1C(=O)C(c2ccccc2)CC12CCN(C(=O)c1ccc(F)cc1)CC2 (configuration not stated) -3.55%, CN1CCCN(C(=O)c2ccccc2F)c2ccccc21 0.66%, COCCN1CC2(CCCN(C(=O)CNC(N)=O)C2)CCC1=O (configuration not stated) -0.876%, O=C(c1ccccn1)N1CCC(N2CCCC2=O)CC1 7.98% [at 57.5 µM], CC(C)c1ccc(N2C[C@]34C=C[C@H](O3)C(C(=O)N3CCSCC3)C4C2=O)cc1 (some centres not stated) 0.842%, C=CCN1CC2(CCC1=O)CCN(C(=O)C1CC=CCC1)CC2 (configuration not stated) -3.76%, O=C(CCc1nnn2c1CN(C(=O)c1cccc3[nH]ccc13)CC2)N1CCCC1 26%, Nc1nc(CCC(=O)N[C@@H]2COCC[C@H]2Oc2ccc(CO)cc2)cs1 -3.81%, COCCC(=O)N1CCCN(C(=O)C2CC2)c2ccccc21 -1.91%, CC(C)CCO[C@H]1COCCN(C2CCN(C)CC2)C1 2.73% [at 77.1 µM], CC(C)NC(=O)N1CCOc2ccc(CCC(=O)NCCc3cccnc3)cc2C1 -0.159%, COc1ccc(C(=O)N2CC[C@@](O)(C3CCOCC3)[C@H](C)C2)o1 5.72%, c1ccc(-c2nc(-c3ccc(OC4CNC4)cc3)no2)cc1 0.0588%, O=C1NC2(CCCN(Cc3ccccc3C(F)(F)F)C2)COc2ccccc21 (configuration not stated) 12.8%, COc1cccc(-c2cc(C(=O)N3CCC(Cn4cccn4)CC3)[nH]n2)c1 13.4%, COc1ccc(-c2ccc(C(=O)NCc3cccc(Cl)c3)cc2)nn1 1.87%, CCNC(=O)[C@@H]1C[C@H](NC(=O)CCc2ccccc2)CN1Cc1cnc[nH]1 0.72%, CC[C@@]1(O)CCN(C(=O)c2cccc(CCC(C)(C)O)c2)C[C@H]1O -0.696%, CNC1=C(c2ccc(F)cc2)C(=O)N(Cc2ccccc2)C1 12.4%, CCn1ncnc1C(C)NC(=O)Cn1nc(-c2ccccc2)n(CC)c1=O (configuration not stated) -7.75%, O=C(O)c1cnc(-c2ccccc2)nc1-c1ccncc1 6.13%, O=C(COc1ccccc1)N1CCOC[C@H](Oc2ccccc2)C1 6.86% [at 57.5 µM], Cc1cc(C(=O)N2CC(N(C(=O)NC(C)C)C3CCOCC3)C2)nn1C -2.63%, c1ccc(-c2[nH]nc3ncc(-c4cn[nH]c4)nc23)cc1 2.58% [at 77.1 µM], O=C(NCCc1ccc(Cl)cc1)C1CCc2nnc(CN[S+](=O)([O-])c3ccccc3Cl)n21 (configuration not stated) -0.104%, CC(Cc1ccncc1)Nc1nccc(-c2cnn(-c3ccccc3)c2)n1 (configuration not stated) 8.98%, Cc1oc2ccn(Cc3cccc(F)c3)c(=O)c2c1C(=O)NC1CCCC1 3.3%, C[S+](=O)([O-])NC1CC2(CCN(C(=O)c3ccccc3)CC2)c2ccccc21 (configuration not stated) -1.27%, O=C1Nc2ccccc2CC12CCCN2C1COC1 (configuration not stated) 17.5% [at 57.5 µM], Fc1cccc(-c2cc(-c3cn[nH]c3)c3cncn3c2)c1 3.29% [at 77.1 µM], CCOC(=O)C1CCN(C(=O)C2CCc3nnc(CN[S+](C)(=O)[O-])n32)CC1 (configuration not stated) 19.1%, Cc1cccc(S(=O)(=O)N2CCCC(Cn3c(C4CC4)nc4cccnc43)C2)c1 (configuration not stated) 3.17%, C#CCN(C)C(=O)C[C@@H]1c2nc(NC(=O)CCCCC)sc2C[C@@H]2[C@](C)(CO)[C@H](O)CC[C@]21C 0.767%, COc1ccc(OC)c(S(=O)(=O)NCC2CNCCOC2)c1 (configuration not stated) -0.32%, COCC(=O)N[C@H]1CCN(C(=O)COC)[C@H](C(=O)N[C@H](Cc2ccccc2)C(N)=O)C1 13% [at 57.5 µM], O=C(Cc1ccsc1)Nc1ccc2c(N3CCCC3)ncnc2c1 1.1%, O=C1NCCOCCN(C(=O)NC2CCCCC2)[C@@H]2CCCC[C@H]12 0.348%, COCCCNC(=O)C1(CCO)CCN(c2ncccn2)C1 (configuration not stated) 26.2%, COc1ccc(-c2nc3c(C)cccc3cc2CN2CCC(O)CC2)cc1OC 0.559%, O=c1[nH]nc2n1CCN(C1CCOCC1)CC2 -9.23%, Fc1cnc(N2CCCC(OCc3cccnc3)C2)nc1N1CCOCC1 (configuration not stated) 2.89%, O=C(CC1CCCN(c2cn[nH]c(=O)c2)C1)N1CCCCC1 (configuration not stated) 11.3%, O=C(NCc1ccco1)NC1CCc2nnc(C3CC3)n2CC1 (configuration not stated) 5.01%, O=C(c1cccs1)N1CCc2[nH]nc(-c3cccc(F)c3)c2C1 -1.03%, COc1ccc(C(=O)N2CCC(N3Cc4cnc(C)n4C3=O)CC2)cc1 23.7%, COc1ccc(C2(C(=O)N3CCC[C@H]3c3nc(-c4ccccc4Cl)no3)CC2)cc1 9.01%, CCN1CCN(C(=O)C2CCCN(Cc3ccncc3)CCC(=O)NCC2)CC1 (configuration not stated) 8.36%, O=C(NCc1ccc(F)cc1)C1=NOC2CN(C(=O)Nc3cccnc3)CC12 (configuration not stated) 4.5%, CCc1ccc(S(=O)(=O)N2c3ccccc3CC2c2nnc(C3CCOCC3)o2)cc1 (configuration not stated) 0.344%, CCCS(=O)(=O)NCC1Cn2cccc2C(=O)N1CCOC (configuration not stated) -0.29%, O=C1CC2(CCN(Cc3ccc(C(F)(F)F)cc3)CC2)Oc2ccccc21 0.312%

— PubChem BioAssay AID1794845 (National Center for Advancing Translational Sciences (NCATS), 2023)
